Reference: PMC9473917

By UniProt entry, the sequences of proteins in these tests, tags left out. Where a name states a change or a piece, a line headed by the entry shows the natural chain unless it says otherwise.
UniProt Q24298: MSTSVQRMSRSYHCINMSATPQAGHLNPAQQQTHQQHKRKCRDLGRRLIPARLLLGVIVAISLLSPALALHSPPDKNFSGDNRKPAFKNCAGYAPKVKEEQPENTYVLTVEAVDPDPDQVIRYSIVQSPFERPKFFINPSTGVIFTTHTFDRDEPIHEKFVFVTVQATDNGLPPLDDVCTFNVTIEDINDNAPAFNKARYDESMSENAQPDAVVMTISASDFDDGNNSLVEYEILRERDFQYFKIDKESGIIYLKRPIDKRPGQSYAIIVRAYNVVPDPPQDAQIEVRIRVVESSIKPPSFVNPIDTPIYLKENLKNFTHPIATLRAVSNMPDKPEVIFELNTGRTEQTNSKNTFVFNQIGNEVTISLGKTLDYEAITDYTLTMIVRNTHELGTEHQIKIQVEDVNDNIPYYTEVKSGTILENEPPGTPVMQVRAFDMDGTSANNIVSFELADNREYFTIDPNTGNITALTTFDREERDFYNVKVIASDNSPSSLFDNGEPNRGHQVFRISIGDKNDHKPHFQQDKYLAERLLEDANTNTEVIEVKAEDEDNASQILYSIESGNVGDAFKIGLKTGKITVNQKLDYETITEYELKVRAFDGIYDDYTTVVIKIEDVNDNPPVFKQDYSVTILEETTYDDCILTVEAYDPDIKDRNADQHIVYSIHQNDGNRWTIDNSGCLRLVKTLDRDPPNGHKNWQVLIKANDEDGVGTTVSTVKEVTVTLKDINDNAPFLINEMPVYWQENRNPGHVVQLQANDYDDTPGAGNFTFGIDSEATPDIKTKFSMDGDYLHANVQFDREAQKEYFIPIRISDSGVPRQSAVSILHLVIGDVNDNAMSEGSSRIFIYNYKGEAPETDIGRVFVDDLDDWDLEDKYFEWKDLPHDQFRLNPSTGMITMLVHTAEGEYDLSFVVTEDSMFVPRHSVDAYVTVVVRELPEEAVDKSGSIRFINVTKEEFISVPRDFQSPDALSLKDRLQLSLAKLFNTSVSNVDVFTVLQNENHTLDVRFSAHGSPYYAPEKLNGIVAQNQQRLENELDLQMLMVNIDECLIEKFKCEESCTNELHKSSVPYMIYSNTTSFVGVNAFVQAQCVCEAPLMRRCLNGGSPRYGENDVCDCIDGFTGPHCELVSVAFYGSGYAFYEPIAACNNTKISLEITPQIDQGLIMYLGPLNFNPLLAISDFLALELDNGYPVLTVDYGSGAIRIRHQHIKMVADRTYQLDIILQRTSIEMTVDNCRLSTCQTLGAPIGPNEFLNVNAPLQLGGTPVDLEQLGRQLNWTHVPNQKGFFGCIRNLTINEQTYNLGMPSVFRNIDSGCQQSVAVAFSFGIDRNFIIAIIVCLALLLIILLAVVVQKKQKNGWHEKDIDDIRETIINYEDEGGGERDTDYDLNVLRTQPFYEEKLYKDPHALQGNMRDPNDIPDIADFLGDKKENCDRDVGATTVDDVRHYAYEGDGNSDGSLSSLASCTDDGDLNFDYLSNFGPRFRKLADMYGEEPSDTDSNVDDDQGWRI

Target: T1, Stat92E-GFP (Drosophila) (UniProt Q24151)
T1 sequence: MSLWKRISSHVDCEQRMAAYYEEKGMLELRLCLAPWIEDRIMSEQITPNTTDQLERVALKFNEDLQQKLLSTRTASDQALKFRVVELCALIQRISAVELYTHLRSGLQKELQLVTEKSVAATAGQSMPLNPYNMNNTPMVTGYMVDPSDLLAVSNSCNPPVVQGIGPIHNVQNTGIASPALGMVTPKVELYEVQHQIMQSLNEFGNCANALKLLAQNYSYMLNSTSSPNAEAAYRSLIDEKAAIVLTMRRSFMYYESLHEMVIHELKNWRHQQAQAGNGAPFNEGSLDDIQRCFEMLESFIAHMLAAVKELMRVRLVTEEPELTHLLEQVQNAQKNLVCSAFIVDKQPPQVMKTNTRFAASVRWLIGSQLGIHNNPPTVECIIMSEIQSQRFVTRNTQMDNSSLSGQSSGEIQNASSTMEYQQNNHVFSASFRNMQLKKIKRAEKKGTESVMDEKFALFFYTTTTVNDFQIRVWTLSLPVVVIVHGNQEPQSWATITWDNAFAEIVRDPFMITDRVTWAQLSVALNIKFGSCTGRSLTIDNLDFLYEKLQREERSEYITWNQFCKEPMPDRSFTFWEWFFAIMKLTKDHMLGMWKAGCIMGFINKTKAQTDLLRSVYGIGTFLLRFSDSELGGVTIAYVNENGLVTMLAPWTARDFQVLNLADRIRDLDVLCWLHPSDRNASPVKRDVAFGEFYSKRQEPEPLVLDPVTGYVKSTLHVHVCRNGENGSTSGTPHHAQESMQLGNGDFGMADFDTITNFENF
Experiment: co-IP; ovary extracts from 50 females; proteins chemically cross-linked with DSP prior to cell lysis; GFP magnetic agarose beads (Chromotek, GFP-trap); wash buffer 10 mM Tris-HCl pH7.5, 300 mM NaCl, 0.05% NP40, 0.5 mM EDTA; blots with anti-GFP or anti-E-cadherin

## E-cadherin, overexpressed (UAS-shg) (from UniProt Q24298)
  binding: binds

These are yes or no findings as the source states them, for the method shown. Binding seen in cells or lysates may run through a third protein. Binding calls can cover weak binding; strength is not graded here. Tags and fused reporters may be left off the sequences shown.
